Results are given in words; binding and its absence hold for the method and conditions named. Some results given as binding are weak or reduced against the parent protein; the word gives no strength. Tags and fused reporters may be left off the sequences shown.

Chains of the proteins cited; added tags and fusions are not shown.
UniProt P17931: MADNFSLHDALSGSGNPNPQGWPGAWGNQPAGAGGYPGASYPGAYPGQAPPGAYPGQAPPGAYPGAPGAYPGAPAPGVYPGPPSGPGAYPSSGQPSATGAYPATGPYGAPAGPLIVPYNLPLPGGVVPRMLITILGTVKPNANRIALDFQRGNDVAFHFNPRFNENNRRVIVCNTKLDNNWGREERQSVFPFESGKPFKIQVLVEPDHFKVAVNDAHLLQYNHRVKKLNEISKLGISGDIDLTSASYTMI

The target of the assay is T1, Trem2-FLAG (UniProt Q99NH8).
T1 sequence: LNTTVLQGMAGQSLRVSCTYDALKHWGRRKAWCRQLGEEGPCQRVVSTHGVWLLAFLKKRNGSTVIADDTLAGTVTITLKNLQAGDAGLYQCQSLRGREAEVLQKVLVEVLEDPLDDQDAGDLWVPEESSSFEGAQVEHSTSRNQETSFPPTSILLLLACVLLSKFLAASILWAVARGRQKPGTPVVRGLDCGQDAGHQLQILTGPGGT
Nature of the assay: antibody-capture bead assay read by flow cytometry; Trem2-FLAG captured from lysates of vehicle or LPS-treated (100 ng/ml) BV-2 by anti-FLAG and protein A/G magnetic beads; beads stained with TAMRA-labeled Gal-3 (10 ug/ml) for 20 min at room temperature; mean fluorescence of beads; only the binder purified. On the technique in general: Flow cytometry measures light scatter and fluorescence of single cells or particles in a stream.

As to “galectin-3 (from UniProt P17931 1-250) (ligand)”, the binding result is on record as “binds”.

Source of the values: publication PMC9178234.
